# In patent publication US20260216347A1, “Substituted Imidazo-Based Compounds as Ligand Directed Degraders of IRAK3” (Celgene Corporation, priority 2022, published 2026):
# The chains behind the UniProt entries cited, without tags or fusion partners.
# UniProt Q9Y616, whole entry: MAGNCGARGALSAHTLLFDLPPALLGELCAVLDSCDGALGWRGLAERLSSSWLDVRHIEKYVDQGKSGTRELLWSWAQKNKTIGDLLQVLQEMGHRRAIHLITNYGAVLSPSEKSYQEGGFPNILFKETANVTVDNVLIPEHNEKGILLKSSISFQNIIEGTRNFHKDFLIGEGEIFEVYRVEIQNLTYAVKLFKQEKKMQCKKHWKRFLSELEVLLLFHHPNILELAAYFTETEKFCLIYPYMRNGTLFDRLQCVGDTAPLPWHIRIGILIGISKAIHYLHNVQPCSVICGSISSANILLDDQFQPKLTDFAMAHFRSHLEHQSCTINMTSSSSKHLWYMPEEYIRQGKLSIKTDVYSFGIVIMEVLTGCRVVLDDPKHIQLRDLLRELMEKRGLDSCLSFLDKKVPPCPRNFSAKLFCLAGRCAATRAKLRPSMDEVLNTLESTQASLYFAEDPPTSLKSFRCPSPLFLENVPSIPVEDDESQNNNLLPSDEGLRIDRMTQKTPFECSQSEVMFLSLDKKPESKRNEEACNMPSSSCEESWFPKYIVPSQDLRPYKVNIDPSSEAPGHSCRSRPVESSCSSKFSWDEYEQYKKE
# Columns and labels:
# IRAK3 [1] = target: T1, IRAK3 (Homo sapiens, UniProt Q9Y616); experiment: IRAK endogenous HTRF degradation assay (Total-IRAK3 HTRF kit); details: overnight incubation, lowest percentage of protein remaining
# Method: Example B2. IRAK Endogenous HTRF Degradation Assay
# Cells (~50 k) were plated in Cisbio 96-well low volume white plates (Cisbio: cat #66PL96005). Compounds were dissolved in DMSO and a 3-fold serial dilution was performed using a TECAN D300E. Cells were incubated with the compound overnight. Total-IRAK3 HTRF kit from Cisbio was used for degradation analysis (Cisbio: 63ADK101PEH). Cryptate and D2 antibodies were diluted in Detection buffer as per manufacturers recommendation. Then 2 μL of each solution was added to 16 μL lysate. […] Post incubation with antibodies the HTRF signal was measured using a Perkin Elmer Envision reader and the HTRF signal was calculated using formula: (Emission at 665 nm/Emission at 615 nm)*10,000. […] Normalized luminescence values were plotted on a graph as a function of compound concentration. […] The EC50 value (the half-maximum effective concentration) of a compound for the degradation of the IRAK3 was calculated using a four-parameter logistic model (sigmoidal dose-response model) (FIT=(A+{(B−A)/1+[(C/x)D]})) where C is the inflection point (EC50), D is the […], and A and B are the low and high limits of the fit, respectively). The Ymin was calculated by determining the lowest percentage of target protein remaining following compound treatment. Dmax was calculated from Ymin (% Dmax=100−Ymin). […]
# IRAK3 [2] = target: T1, IRAK3; experiment: IRAK3 biochemical binding assay (LanthaScreen Eu Kinase Binding, TR-FRET); details: read-out: IRAK3 binding IC50
# Method: Example B3. IRAK3 Biochemical Binding Assay
# The LanthaScreen® Eu Kinase Binding assay was performed as described by the vendor (ThermoFisher Scientific Waltham, MA). Briefly, 100× solutions of compound were prepared in DMSO via serial dilution of the 10 mM stock solution in a 384-well reagent plate using 3-fold intervals to achieve final concentrations. 1 μL of the compound dilution series were added to the corresponding wells of a 384-well reagent plate containing 32.3 μL of 1× buffer (50 mM HEPES pH 7.4, […], 1 mM EGTA, 0.01% Brij-35). 5 μL of the buffer diluted compounds were transferred to the corresponding wells of a 384-well assay plate. 5 μL of 3× tracer was transferred to each well of the assay plate for a final tracer concentration of 10 nM. Finally, 5 μL of the 3×Eu-Anti-GST and IRAK3 mix was transferred to each well for a final concentration of 2 nM and 10 nM respectively. Reactions were allowed to incubate for 1 hour at room temperature. TR-FRET signal of the interaction (λex340/λem 665/λem 615) was read at room temperature with a delay time of 100 ρs and an integration time of 200 ρs using an Envision plate reader. Background corrected emission signal ratios at each compound concentration were used to calculate percentage of inhibition (% Inhibition). […]
# Using these assays, IC50, Dmax, EC50, and DC50 values of the following compounds were determined. […]
Compound,IRAK3 HTRF degradation Ymin (IRAK3 [1]) [%],IC50 (IRAK3 [2]) [nM]
O=C1CCC(c2ccc(N3CCN(C(=O)CN4CCC(n5cc(Nc6ncc(-c7ccc8c(c7)NC(=O)CO8)n7ccnc67)cn5)CC4)CC3)cc2)C(=O)N1 (stereo not drawn),24,–
Cc1cc(-c2cnc(Nc3cnn([C@H]4CC[C@@H](CCN5CCN(c6ccc(C7CCC(=O)NC7=O)cc6)C[C@H]5C)CC4)c3)c3nccn23)c(F)cc1F (stereo partly drawn),19,8.2

# Structures were worked out from names or drawings and are uncertain.
